Test: Cholesterol, HDL and LDL/VLDL in serum of MCF-7 xenograft mice
Type: in vivo
Conditions: 2 mg/kg PL, 5 mg/kg AP; for total cholesterol in serum (AMPLEX Red): 21 days, compared to Vehicle; for total cholesterol levels in serum (ABNOVA kit): compared to Vehicle group

| Structure (SMILES) | total cholesterol in serum (AMPLEX Red) | total cholesterol levels in serum (ABNOVA kit) |
| --- | --- | --- |
| CC1=CC(=O)c2c(O)cccc2C1=O [PL, 5-hydroxy-2-methyl-1,4-naphthoquinone, reference compound] | Negligible alterations | slightly lower |
| CC(=O)Oc1cccc2c1C(=O)C=C(C)C2=O [AP, Acetyl Plumbagin] | significant increase | elevated |
